Measurements as given in PubChem BioAssay AID485314 (National Center for Advancing Translational Sciences (NCATS), 2010).
In all, about 340,000 compounds went through this assay and about 4,500 (1.3%) were called active. This list was built around the results that the source calls inconclusive (neither active nor inactive); the mix of calls is not that of the screen. Calls come from the whole dose curve; as a rule, active = well fitted inhibition curve with a large enough effect; inconclusive = small, poorly fitted or top-dose-only effect, or another doubt; inactive = no such curve, though single readings can be large or run the other way. Potencies beside an inconclusive call are fits to weak or partial responses and may not hold up.

Each compound was assayed against DNA polymerase beta (Homo sapiens) (UniProt P06746) (assay: qHTS Assay for Inhibitors of DNA Polymerase Beta). Details: Pol beta primer extension/strand displacement, fluorescence kinetic; activity change, negative = inhibition: at 114 µM (top of the series).
In short: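 Pol beta (10 nM) was preincubated with compound for 15 min at room temperature. The reaction was then started with 50 nM substrate and read immediately and after a further 10 min at room temperature.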
% is set by controls: 0 for no effect and ±100 for the full control effect; potency is the fitted concentration of half-maximal effect.

Activity change, negative = inhibition, inconclusive:
CCOC(=O)c1ccc(-c2ccc(/C=C(\C#N)c3nc4ccc(C)cc4[nH]3)o2)cc1 -97.5% [inhibitor]

Activity change, negative = inhibition, inactive:
O=C(CSc1n[nH]c(-c2cccnc2)n1)Nc1ccc(Br)cc1 -1.48%
CCC(=O)N1CCc2cc(S(=O)(=O)CCC(=O)Nc3ccc(OC(F)(F)F)cc3)ccc21 -9.23%
COc1ccccc1NC(=O)COC(=O)Cc1ccc(S(=O)(=O)N2CCCCC2)s1 -5.94%
O=C(Nc1c(C(=O)N2CCN(c3ccccc3)CC2)oc2ccccc12)c1ccc(Br)o1 -19.1%
Cc1cc(Cl)ccc1OCC(=O)Nc1c(Cl)ccc2nsnc12 11%
O=c1cc(-c2ccc(Cl)c(Cl)c2)[nH][nH]1 5.69%
COc1ccc(C2C=C(c3ccccc3)Nc3nc(NC(=O)c4cccc([N+](=O)[O-])c4)nn32)cc1 (centres undefined) 13.1%
CCn1c(CC(=O)Nc2ccccc2F)nnc1SCC(=O)Nc1nncs1 28.1%
O=C(NC1(O)C(=O)c2ccccc2C1=O)c1c(Cl)cccc1Cl 11%
COCC1CCN(C(=O)c2ccc3oc(CCCc4ccccc4)nc3c2)C1 (centres undefined) -0.912%
CC(C)Oc1ccccc1C1C=C(C(=O)O)Nc2ncnn21 (centres undefined) 0.783%
COc1ccc(-c2onc(C)c2C)cc1S(=O)(=O)NCc1ccc(C)o1 11.5%
CCC(C)NC(=O)CCc1c(C)nc2c(c(C)nn2-c2ccc(C)cc2)c1C (centres undefined) 27.7%
Cc1ccc(CNc2ccc(N3CCOCC3)cc2)s1 15.5%
O=C(O)c1ccc2c(c1)C1C=CCC1C(c1cc3c(cc1Br)OCO3)N2 (centres undefined) -1.55%
CCc1ccc(Nc2n[n+](-c3ccccc3)c(-c3ccc(N(CC)CC)cc3)s2)cc1 4.28%
COc1ccc(N2CCN(C(=O)NC3CCCCC3)CC2)cc1 -1.97%
COc1ccc2c(c1O)C(=O)c1ccccc1C2=O 3.08%
COc1cc2c(C(=O)N3CCN(c4cccc(C(F)(F)F)c4)CC3)cn(CC(C)C)c(=O)c2cc1OC -5.45%

Potency, inconclusive:
CCCCCCCC(=O)OCC(=O)[C@@]1(O)CC[C@H]2[C@@H]3CCC4=CC(=O)CC[C@]4(C)[C@H]3[C@@H](O)C[C@@]21C 89.1 µM [inhibitor, single point]
Cc1ccc(C2=NNC(=Nc3ccc(F)cc3)SC2)cc1 79.4 µM [inhibitor, single point]
O=C(O)c1cccc(S(=O)(=O)NNc2ccccc2C(F)(F)F)c1 100 µM [inhibitor, single point]
CC(C)(c1ccccc1)c1ccc(OCCCNCCO)cc1 39.8 µM [inhibitor, partial curve, poor fit]
Fc1ccc(NC(=S)N2CCc3[nH]c4ccccc4c3C2)cc1 79.4 µM [inhibitor, single point]
CCOC(=O)c1c(-c2ccc(C)cc2)csc1NC(=O)c1cc2ccccc2oc1=O 44.7 µM [inhibitor, partial curve]
CCNC(=O)CSC1=N/C(=C\c2ccc(O)c(OCC)c2)C(=O)N1c1ccc(OC(F)F)cc1 79.4 µM [inhibitor, single point]
CCOC(=O)c1ccc(-n2c(CCC(=O)O)ccc2-c2ccc(Br)cc2)cc1 12.6 µM [inhibitor, single point]
O=C(Nc1ccc(F)cc1)N1CCN(c2ccccc2F)CC1 25.1 µM [inhibitor, single point]
NC(=O)CSc1nnc(NC(=O)c2ccc(Br)o2)s1 39.8 µM [inhibitor, single point]
O=C(CSc1nnc2c(n1)[nH]c1ccccc12)Nc1ccc2c(c1)OCO2 3.55 µM [inhibitor, partial curve, poor fit]
O=C(COc1ccccc1)N1CCN(c2nnc(-c3ccccc3)c3ccccc23)CC1 89.1 µM [inhibitor, single point]
CCOC(CCNC(=O)c1cn(CC(C)C)c(=O)c2c1c1ccccc1n2C)OCC 100 µM [inhibitor, partial curve]
Cc1ccc(-c2ccc(=O)n(CC(=O)Nc3ccc(C)cc3Cl)n2)cc1 89.1 µM [inhibitor, single point]
Cc1ccc(OCC(=O)Nc2cccc(-c3nc4ccccc4s3)c2)cc1 89.1 µM [inhibitor, single point]
O=C(NCCO)C1COc2ccccc2O1 (centres undefined) 89.1 µM [inhibitor, single point]
COC(=O)CN(Cc1ccco1)S(=O)(=O)c1ccccc1 14.1 µM [inhibitor, full curve]
COc1ccc(CCNC(=O)c2nnn(CC(=O)Nc3ccccc3)c2N)cc1OC 89.1 µM [inhibitor, single point]
O=C(c1ccccc1)c1ccc(OC(=O)C2CCCCC2)cc1 20 µM [inhibitor, single point]
COc1cc(OC)c(-c2nc3cnccc3n2C)cc1OC 7.94 µM [inhibitor, full curve]
CNc1ccccc1C(C)(C)c1ccn[nH]1 0.141 µM [inhibitor, full curve, poor fit]
CN(Cc1ccc(F)cc1)C(=O)c1cc(COc2ccc(-n3cncn3)cc2)on1 39.8 µM [inhibitor, single point]
Cc1cccc(C(=O)Nc2cc(-c3nc4cccnc4s3)ccc2C)c1 100 µM [inhibitor, single point]
CN(CCN1CCOCC1)C(=O)CC1C(=O)NCCN1Cc1ccccc1C(F)(F)F (centres undefined) 89.1 µM [inhibitor, single point]
COCCN1CCn2c(nc3cc(NC(=O)Cn4nc(C)c5ccccc5c4=O)ccc32)C1 25.1 µM [inhibitor, partial curve]
CCCCn1c(CCC(=O)O)ccc1-c1cccs1 50.1 µM [inhibitor, partial curve]
CNS(=O)(=O)c1cccc(C(=O)OCc2cc(=O)n3cc(Br)ccc3n2)c1 35.5 µM [inhibitor, full curve]
Cc1ccc(C2=Nc3c(ccc4ccccc34)C(c3ccncc3)=NN2)cc1 89.1 µM [inhibitor, single point]
Cc1ccc(-c2cn(-c3ccccc3)c(SCC(=O)NC3CCS(=O)(=O)C3)n2)cc1C (centres undefined) 89.1 µM [inhibitor, single point]
Cc1ccc(-c2cc(-c3c(C)nn(C)c(=O)c3N)[nH]n2)cc1 50.1 µM [inhibitor, single point]
O=c1cc(CCl)nc2sc3ccccc3n12 5.62 µM [inhibitor, full curve, poor fit]
Cc1cccc(/C=N/NC(=O)c2ccc(NC(=O)c3ccc(Cl)cc3)cc2)n1 14.1 µM [inhibitor, full curve, poor fit]
Cc1cc(-c2ccccc2)nc(-c2ccccc2)c1C 79.4 µM [inhibitor, single point]
CCc1ccccc1NC(=O)NCCN1CCCCC1 100 µM [inhibitor, single point]
Cc1cc(=O)c2c(O)c(O)ccc2o1 39.8 µM [inhibitor, single point]
O=C(Nc1ccc2c(c1)OCO2)c1cc(-c2ccncc2)nc2ccccc12 89.1 µM [inhibitor, single point]
O=C1C=CC(=O)N1CCNc1ncc(C(F)(F)F)cc1Cl 79.4 µM [inhibitor, single point]
COc1ccc(-c2csc(NC(=O)c3ccccc3NS(=O)(=O)c3ccc(C)cc3)n2)cc1 63.1 µM [inhibitor, single point]
CC(C)c1ccc(CNc2nc(-c3ccco3)nn2C(=O)c2ccc([N+](=O)[O-])cc2)cc1 35.5 µM [inhibitor, single point]
c1ccc(-c2nnnn2CCOCCn2nnnc2-c2ccccc2)cc1 39.8 µM [inhibitor, partial curve]
CC(C(=O)NC1C=CS(=O)(=O)C1)N1C(=O)/C(=C\c2ccccc2)SC1=S (centres undefined) 28.2 µM [inhibitor, single point]
Cc1ccc(Cl)cc1NC(=O)CN1C(=O)CSc2ccc(S(=O)(=O)N3CCCC3)cc21 4.47 µM [inhibitor, single point]
O=S(=O)(c1cccc2nonc12)N1CCN(c2ccccc2F)CC1 22.4 µM [inhibitor, single point]
CC(NC(=O)COC(=O)CCc1ccc(S(=O)(=O)N2CCOCC2)cc1)C1CC2CCC1C2 (centres undefined) 50.1 µM [inhibitor, partial curve]
COc1ccc2occ(C(=O)c3coc4ccc(O)c(CN(C)C)c34)c2c1 50.1 µM [inhibitor, partial curve]

5 entries drawn at random from the list so far, as already listed:
Potency, inconclusive:
CN(Cc1ccc(F)cc1)C(=O)c1cc(COc2ccc(-n3cncn3)cc2)on1 39.8 µM [inhibitor, single point]
CC(NC(=O)COC(=O)CCc1ccc(S(=O)(=O)N2CCOCC2)cc1)C1CC2CCC1C2 (centres undefined) 50.1 µM [inhibitor, partial curve]
Cc1cc(=O)c2c(O)c(O)ccc2o1 39.8 µM [inhibitor, single point]
O=C(Nc1ccc2c(c1)OCO2)c1cc(-c2ccncc2)nc2ccccc12 89.1 µM [inhibitor, single point]
CC(C)(c1ccccc1)c1ccc(OCCCNCCO)cc1 39.8 µM [inhibitor, partial curve, poor fit]

Next part:

Potency, active:
Cc1ccn2cc(CC(=O)O)nc2c1 12.6 µM
O=C(N/N=C/c1cccnc1)c1cccc(NC(=O)c2ccc(Cl)cc2)c1 39.8 µM
O=C1N=C(N2CCN(c3ccccc3)CC2)S/C1=C\c1ccco1 12.6 µM
O=C(O)c1ccc(-n2cccc2/C=C2/NC(=O)N(c3cccc(Cl)c3)C2=O)cc1 2.24 µM
